Results reported in US20260240865A1, “HARNESSING IKZF:BETA-CATENIN COMPLEXES IN THE TREATMENT OF LYMPHOCYTE ASSOCIATED DISEASES OR CONDITIONS” (Yale University, priority 2022, published 2026).
Results are given in words; binding and its absence hold for the method and conditions named. In cells and extracts the contact can be indirect. Some results given as binding are weak or reduced against the parent protein; the word gives no strength.

Chains of the proteins cited; added tags and fusions are not shown. Residues count along the entry.
UniProt Q02248, residues 2-781: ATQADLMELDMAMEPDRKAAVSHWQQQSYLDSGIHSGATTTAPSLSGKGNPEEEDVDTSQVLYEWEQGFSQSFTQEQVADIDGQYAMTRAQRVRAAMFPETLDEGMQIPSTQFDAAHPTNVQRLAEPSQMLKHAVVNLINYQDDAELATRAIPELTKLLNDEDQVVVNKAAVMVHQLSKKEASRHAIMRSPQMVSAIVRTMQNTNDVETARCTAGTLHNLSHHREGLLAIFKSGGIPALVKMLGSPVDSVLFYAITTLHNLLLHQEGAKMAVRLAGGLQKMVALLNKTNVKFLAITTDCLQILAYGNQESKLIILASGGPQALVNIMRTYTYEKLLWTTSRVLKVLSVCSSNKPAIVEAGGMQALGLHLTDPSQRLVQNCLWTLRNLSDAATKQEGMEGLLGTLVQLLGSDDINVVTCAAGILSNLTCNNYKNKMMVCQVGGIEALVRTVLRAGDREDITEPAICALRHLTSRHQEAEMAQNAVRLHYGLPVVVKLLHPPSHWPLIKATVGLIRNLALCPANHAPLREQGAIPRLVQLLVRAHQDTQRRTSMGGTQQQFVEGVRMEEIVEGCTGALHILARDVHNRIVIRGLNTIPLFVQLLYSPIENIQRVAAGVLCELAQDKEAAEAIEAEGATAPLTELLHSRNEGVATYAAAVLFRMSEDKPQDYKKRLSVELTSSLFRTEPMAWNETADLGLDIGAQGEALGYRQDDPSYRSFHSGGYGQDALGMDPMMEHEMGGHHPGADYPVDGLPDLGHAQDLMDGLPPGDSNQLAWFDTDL
UniProt O08900: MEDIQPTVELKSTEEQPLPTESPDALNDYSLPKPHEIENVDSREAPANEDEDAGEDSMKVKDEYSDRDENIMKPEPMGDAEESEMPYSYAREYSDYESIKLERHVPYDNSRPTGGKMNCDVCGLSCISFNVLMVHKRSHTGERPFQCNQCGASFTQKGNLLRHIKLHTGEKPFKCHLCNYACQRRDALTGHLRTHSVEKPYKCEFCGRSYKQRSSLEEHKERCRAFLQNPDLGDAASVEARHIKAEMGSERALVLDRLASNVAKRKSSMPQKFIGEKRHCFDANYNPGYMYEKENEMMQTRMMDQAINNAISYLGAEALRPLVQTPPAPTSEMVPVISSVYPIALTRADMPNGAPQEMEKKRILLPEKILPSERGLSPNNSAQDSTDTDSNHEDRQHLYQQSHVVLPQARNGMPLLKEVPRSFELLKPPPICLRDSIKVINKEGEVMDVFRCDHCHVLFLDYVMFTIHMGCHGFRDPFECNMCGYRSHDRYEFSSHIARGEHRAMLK
UniProt Q03267: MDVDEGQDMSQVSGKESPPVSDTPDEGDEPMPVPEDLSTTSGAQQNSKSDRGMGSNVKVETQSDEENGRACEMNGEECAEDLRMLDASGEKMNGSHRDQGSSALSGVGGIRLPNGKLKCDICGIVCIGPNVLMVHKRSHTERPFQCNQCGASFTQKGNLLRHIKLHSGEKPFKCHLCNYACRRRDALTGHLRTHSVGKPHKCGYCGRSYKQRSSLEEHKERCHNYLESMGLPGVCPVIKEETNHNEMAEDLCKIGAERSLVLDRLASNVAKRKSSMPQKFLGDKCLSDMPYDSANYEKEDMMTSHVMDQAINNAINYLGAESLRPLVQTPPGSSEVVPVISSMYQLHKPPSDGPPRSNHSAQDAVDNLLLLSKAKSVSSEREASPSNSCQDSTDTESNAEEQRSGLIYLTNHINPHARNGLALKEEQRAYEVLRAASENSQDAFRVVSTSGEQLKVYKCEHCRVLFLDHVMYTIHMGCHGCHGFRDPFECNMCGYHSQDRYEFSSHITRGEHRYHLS
UniProt Q00417: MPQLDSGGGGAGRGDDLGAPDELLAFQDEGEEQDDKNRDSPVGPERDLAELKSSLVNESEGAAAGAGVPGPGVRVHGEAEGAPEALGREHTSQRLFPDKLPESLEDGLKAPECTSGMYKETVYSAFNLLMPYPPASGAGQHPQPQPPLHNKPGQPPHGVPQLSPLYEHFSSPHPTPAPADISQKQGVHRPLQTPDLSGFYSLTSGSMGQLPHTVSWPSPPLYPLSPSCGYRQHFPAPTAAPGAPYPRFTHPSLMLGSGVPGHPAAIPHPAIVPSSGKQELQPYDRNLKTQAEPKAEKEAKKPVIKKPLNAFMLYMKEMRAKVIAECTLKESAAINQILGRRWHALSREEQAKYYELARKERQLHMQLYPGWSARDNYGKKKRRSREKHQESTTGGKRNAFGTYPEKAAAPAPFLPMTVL
UniProt Q924A0: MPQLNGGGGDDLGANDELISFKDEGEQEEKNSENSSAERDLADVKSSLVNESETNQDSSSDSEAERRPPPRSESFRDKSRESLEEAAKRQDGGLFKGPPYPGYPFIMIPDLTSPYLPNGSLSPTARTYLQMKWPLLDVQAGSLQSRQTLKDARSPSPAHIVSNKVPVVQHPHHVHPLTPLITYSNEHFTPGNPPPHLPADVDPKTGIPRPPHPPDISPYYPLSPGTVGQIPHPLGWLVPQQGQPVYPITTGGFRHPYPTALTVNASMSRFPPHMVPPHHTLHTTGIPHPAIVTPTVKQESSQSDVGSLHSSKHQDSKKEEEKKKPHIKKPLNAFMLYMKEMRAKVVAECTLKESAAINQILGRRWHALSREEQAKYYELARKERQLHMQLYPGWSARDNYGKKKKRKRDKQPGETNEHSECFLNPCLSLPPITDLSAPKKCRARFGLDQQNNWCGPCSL

B1: Tcf7l1, mouse (protein, UniProt Q9Z1J1 1-584, looked up)
chain: MPQLGGGRGGAGGGGGGSGAGATSGGDDLGANDELIPFQDEGGEEQEPSSDTASAQRDLDEVKSSLVNESENQSSSSDSEAERRPQPARDAFQKPRDYFAEVRRPQDGAFFKGGAYPGYPFLMIPDLSSPYLSNGPLSPGGARTYLQMKWPLLDVPSSATVKDTRSPSPAHLSNKVPVVQHPHHMHPLTPLITYSNDHFSPASPPTHLSPEIDPKTGIPRPPHPSELSPYYPLSPGAVGQIPHPLGWLVPQQGQPMYSLPPGGFRHPYPALAMNASMSSLVSSRFPHMVAPAHPGLPTSGIPHPAIVSPIVKQEPAAPSLSPAVSAKSPVTVKKEEEKKPHVKKPLNAFMLYMKEMRAKVVAECTLKESAAINQILGRKWHNLSREEQAKYYELARKERQLHAQLYPTWSARDNYGKKKKRKREKQLSQTQSQQQIQEAEGALASKSKKPCIQYLPPEKPCDSPASSHGSALDSPATPSAALASPAAPAATHSEQAQPLSLTTKPEARAQLALHSAAFLSAKAAASNSSQMGSQPPLLSRPLPLGSMPAALLTSPPTFPATLHAHQALPVLQAQPLSLVTKSAH

Key:
[1] = molecular target: β-catenin (Ctnnb1), mouse (mouse) (UniProt Q02248); assay: co-IP for β-catenin and Western blot in Ikzf1-deleted (clone 1C7) Ctnnb1^ex3fl/+ B-ALL cells
[2] = molecular target: β-catenin (Ctnnb1), mouse (mouse) (UniProt Q02248); assay: co-IP for β-catenin and Western blot in B-ALL cells with biallelic deletion of Ikzf1 (FIG. 12A)
[3] = molecular target: β-catenin (Ctnnb1), mouse (mouse) (UniProt Q02248); assay: co-IP for β-catenin and Western blot in Ikzf3-deleted (clone 2F9) Ctnnb1^ex3fl/+ B-ALL cells
[4] = molecular target: β-catenin (Ctnnb1), mouse (mouse) (UniProt Q02248); assay: co-IP for β-catenin and Western blot in B-ALL cells with biallelic deletion of Ikzf3 (FIG. 12A)
[5] = molecular target: β-catenin (Ctnnb1), mouse (mouse) (UniProt Q02248); assay: co-IP with anti-β-catenin antibody and Western blot, Ikzf1/Ikzf3-deleted B-ALL cells
[6] = molecular target: β-catenin (Ctnnb1), mouse (mouse) (UniProt Q02248); assay: co-IP with anti-β-catenin antibody and Western blot, β-catenin accumulation, Ikzf1/Ikzf3-deleted B-ALL cells
[7] = molecular target: β-catenin (Ctnnb1), mouse (mouse) (UniProt Q02248); assay: co-IP with anti-β-catenin antibody and Western blot, β-catenin accumulation, B-ALL cells with and without Ikzf1/Ikzf3 deletion

Row | Molecule | binding [5] | binding [7] | also measured
1 | Aiolos (Ikzf3), mouse (from UniProt O08900 1-507) | – | – | binding [1]: binds; binding [2]: binds
2 | Ikaros (Ikzf1), mouse (from UniProt Q03267 1-517) | – | – | binding [3]: binds; binding [4]: binds
3 | Tcf7, mouse (from UniProt Q00417 1-419) | binds | – | binding [6]: binds
4 | Tcf7l2, mouse (from UniProt Q924A0 1-459) | binds | binds | –
5 | B1 | binds | binds | –
